# Measurements from patent US6626844B1, “Method and composition for inhibition of nitric oxide production in the oral cavity” (Aerocrine AB, priority 1998, dated 2003).
# Columns and labels:
# NO in exhaled air = test: Mouthwashes and NO in exhaled air; assay type: in vivo, humans
# Text: Ten healthy non-smoking subjects, age 23-43, were included in the study. The NO measurements were made with a chemiluminescense technique according to the recommendations recently described in the ERS Task Force Report (Kharitonov et al., 1997). The values of NO concentration were then registered in a computer software program together with the values of flow and pressure, measured with a pneunotachygraf, and calculations of these parameters were presented on a screen.
# The following describes briefly the “single-breath” method for orally exhaled air. Compressed NO free air was continuously flowing into a non-diffusing gas collection bag, 100 l capacity (Hans Rudolph Inc.), at a rate of 2-3 l/min. The bag was connected via a tube to a Y-piece with a one-way valve, which in turn was adapted to a mouthpiece. Before the measurements the subjects inhaled NO free air through the mouthpiece and were asked to hold their breath for 10 s while they put their tongue into the mouthpiece's opening, in order to prevent NO from diffusing out. Then the subjects exhaled through the mouthpiece at a flow rate of about 0.15 l/s against a resistance of 50 cmH2O/l/s (Hans Rudolph Inc.), giving rise to an oral pressure of 8-10 cmH2O, for a period of 20 s. The exhaled air went out through the other one-way valve in the Y-piece leading on to a linear pneumotachymeter (Hans Rudolph Inc.), where the values of flow and pressure were registered and transformed into digital signals recorded by a computer software program (Medical Breath Analyser™ from Aerocrine AB, Sweden). […] The detected NO levels were passed on to the computer and integrated with the figures for flow and pressure for calculation of NO release rate (pmol/s) and NO amount (pmol). NO release was calculated by the formula: NO-conc×Q=pmol/s×l/s=pmol/s. […] In addition to the curves for flow and pressure two curves for NO concentration and NO release were plotted on the screen and calculated mean values were presented for the last 40% of the breath, representing the plateau phase. […]
# [1] = Nitrate and nitrite concentration in saliva after nitrate loading; assay type: in vivo, humans
smiles,measurement,setting,value
O=C1O[C@H]([C@@H](O)CO)C(O)=C1O [ascorbic acid],duration of effect on peak concentrations,NO in exhaled air; after mouthwash,up to 180 s
same,time after which plateau levels were back to normal,NO in exhaled air; after mouthwash,120 s
O=[N+]([O-])[O-].[K+] [potassium nitrate],nitrate concentration in saliva,"[1]; 60 min after ingestion of 400 mg potassium nitrate, baseline 0.40±0.21, n=7",4.00 ± 0.69 mM
same,increase of nitrate concentration in saliva,[1]; 60 min after nitrate ingestion,10 fold
same,nitrate concentration in saliva,[1]; 120 min after nitrate ingestion,2.92 ± 0.48 mM
same,nitrite concentration in saliva,"[1]; 120 min after nitrate load (peak), baseline 0.37±0.09",1.56 ± 0.44 mM
"O=N[O-].[K+] [nitrite solution, potassium nitrite]","duration of elevated NO, plateau and peak",NO in exhaled air; after 10 mM nitrite mouthwash,> 240 s
